Results taken from patent US6413761B2, “Decaprenyl diphosphate synthetase gene” (Toyota Jidosha Kabushiki Kaisha, priority 1997, dated 2002).
At least one structure is not confirmed: it was looked up by name or label, or the drawing left a doubt.

Test system: DPP synthetase
Assay: Substrate specificity of the DPP synthetase on various allylic primers ([14C]IPP incorporation)
Format: biochemical, Paracoccus denitrificans
Details: for Enzyme Activity: allylic primer 25 μM, [14C]IPP 125 μM, 37° C., 1 hour
Protocol: A 200 μl reaction solution shown below was prepared using an appropriate amount of the crude enzyme extract, various allylic primers and [^1-14C]IPP (54 or 57 Ci/mol; Amersham).
The solution was incubated at 37° C. for 1 hour to allow an enzyme reaction. Then, 200 μl of saturated aqueous NaCl solution and 1 ml of n-BuOH saturated with saturated aqueous NaCl solution were added thereto and agitated well. The resultant solution was centrifuged to extract the reaction products. 200 μl of the BuOH layer was collected, and 3 ml of Clear Sol was added thereto. Then, the enzyme activity was determined by measuring the radioactivity in the BuOH extract with a liquid scintillation counter. The enzyme activity was expressed in unit, one unit being the amount of IPP (nmol) taken into the reaction products per 1 minute.
The substrate specificity of this DPP synthetase has been examined on various allyl primers. The unit of enzyme activity is as defined above.

CC(C)=CCC/C(C)=C/CC/C(C)=C/CO[P@@](=O)(O)OP(=O)(O)O (stereo in doubt) [EE-FPP, farnesyl diphosphate]
Enzyme Activity (+Triton X-100 (0.5%)): 54.4 ×10^−3 unit
Activity of the DPP synthetase with the allylic substrate (in words) (substance used as allylic primer substrate): maximum activity
Enzyme Activity (−Triton X-100): 9.05 ×10^−3 unit
